Results deposited as PubChem BioAssay AID1224830 (NIAID, 2016).

- Aim: 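Regulators of TLR4 signalling towards TNF-alpha in macrophage-like cells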 (primary screen)
- System: human THP-1 monocytic leukaemia cells, TNF dual-luciferase reporter clone, PMA-differentiated to macrophage-like cells
- Reagents: siRNA pool against human genes, 50 nM
- Timing: LPS for 4 h, given about 3 days after siRNA transfection
- Conditions: bacterial LPS (TLR4 ligand), 10 ng/ml
- Measured: 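Ratio of firefly to renilla light, scaled to the plate median and expressed as a robust z-score per replicate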
- Direction: TNF reporter robust z-score: higher = stronger TNF reporter response to LPS
- Hit rule: 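Each well counts as active if its z-score is over 2.8 or under -1.5; controls are left without a call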
This is one part, drawn at random, of about 18,000 deposited reagents. About 2,900 of them (16%) were called active. 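Calls are made per well; low scores hint the gene aids the LPS response, high scores that it dampens it.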 The numbers tell different reagents against one gene apart. Repeated entries: four replicate wells of each siRNA pool.

{"gene": "GDPD1 (glycerophosphodiester phosphodiesterase domain containing 1)", "reagent no.": 1, "TNF reporter robust z-score": -1.5, "outcome": "inactive"}
{"gene": "GDPD1 (glycerophosphodiester phosphodiesterase domain containing 1)", "reagent no.": 1, "TNF reporter robust z-score": -1.37, "outcome": "inactive"}
{"gene": "GDPD1 (glycerophosphodiester phosphodiesterase domain containing 1)", "reagent no.": 1, "TNF reporter robust z-score": -1.33, "outcome": "inactive"}
{"gene": "FGF1 (fibroblast growth factor 1)", "reagent no.": 1, "TNF reporter robust z-score": -0.11, "outcome": "inactive"}
{"gene": "FGF1 (fibroblast growth factor 1)", "reagent no.": 1, "TNF reporter robust z-score": 0.87, "outcome": "inactive"}
{"gene": "FGF1 (fibroblast growth factor 1)", "reagent no.": 1, "TNF reporter robust z-score": 1.91, "outcome": "inactive"}
{"gene": "SLC75A1", "reagent no.": 1, "TNF reporter robust z-score": 0.5, "outcome": "inactive"}
{"gene": "SLC75A1", "reagent no.": 1, "TNF reporter robust z-score": 1.35, "outcome": "inactive"}
{"gene": "SLC75A1", "reagent no.": 1, "TNF reporter robust z-score": 0.56, "outcome": "inactive"}
{"gene": "SLC75A1", "reagent no.": 1, "TNF reporter robust z-score": 1.79, "outcome": "inactive"}
{"gene": "FOXD4L3 (forkhead box D4 like 3)", "reagent no.": 1, "TNF reporter robust z-score": -0.42, "outcome": "inactive"}
{"gene": "FOXD4L3 (forkhead box D4 like 3)", "reagent no.": 1, "TNF reporter robust z-score": 0.53, "outcome": "inactive"}
{"gene": "FOXD4L3 (forkhead box D4 like 3)", "reagent no.": 1, "TNF reporter robust z-score": -0.29, "outcome": "inactive"}
{"gene": "FOXD4L3 (forkhead box D4 like 3)", "reagent no.": 2, "TNF reporter robust z-score": 2.15, "outcome": "inactive"}
{"gene": "FOXD4L3 (forkhead box D4 like 3)", "reagent no.": 2, "TNF reporter robust z-score": 0.45, "outcome": "inactive"}
{"gene": "FOXD4L3 (forkhead box D4 like 3)", "reagent no.": 2, "TNF reporter robust z-score": -0.11, "outcome": "inactive"}
{"gene": "FOXD4L3 (forkhead box D4 like 3)", "reagent no.": 2, "TNF reporter robust z-score": -0.1, "outcome": "inactive"}
{"gene": "GTF3C4 (general transcription factor IIIC subunit 4)", "reagent no.": 1, "TNF reporter robust z-score": -0.79, "outcome": "inactive"}
{"gene": "GTF3C4 (general transcription factor IIIC subunit 4)", "reagent no.": 1, "TNF reporter robust z-score": -0.5, "outcome": "inactive"}
{"gene": "GTF3C4 (general transcription factor IIIC subunit 4)", "reagent no.": 1, "TNF reporter robust z-score": -0.57, "outcome": "inactive"}
{"gene": "GTF3C4 (general transcription factor IIIC subunit 4)", "reagent no.": 1, "TNF reporter robust z-score": -0.82, "outcome": "inactive"}
{"gene": "BCL3 (BCL3 transcription coactivator)", "reagent no.": 1, "TNF reporter robust z-score": -1.8, "outcome": "active"}
{"gene": "BCL3 (BCL3 transcription coactivator)", "reagent no.": 1, "TNF reporter robust z-score": -1.02, "outcome": "inactive"}
{"gene": "BCL3 (BCL3 transcription coactivator)", "reagent no.": 1, "TNF reporter robust z-score": -1.28, "outcome": "inactive"}
{"gene": "BCL3 (BCL3 transcription coactivator)", "reagent no.": 1, "TNF reporter robust z-score": -0.77, "outcome": "inactive"}
{"gene": "OSM (oncostatin M)", "reagent no.": 1, "TNF reporter robust z-score": 0.88, "outcome": "inactive"}
{"gene": "OSM (oncostatin M)", "reagent no.": 1, "TNF reporter robust z-score": 0.35, "outcome": "inactive"}
{"gene": "OSM (oncostatin M)", "reagent no.": 1, "TNF reporter robust z-score": 0.73, "outcome": "inactive"}
{"gene": "OSM (oncostatin M)", "reagent no.": 1, "TNF reporter robust z-score": 0.02, "outcome": "inactive"}
{"gene": "NAP1L2 (nucleosome assembly protein 1 like 2)", "reagent no.": 1, "TNF reporter robust z-score": -1.05, "outcome": "inactive"}
{"gene": "NAP1L2 (nucleosome assembly protein 1 like 2)", "reagent no.": 1, "TNF reporter robust z-score": 0.1, "outcome": "inactive"}
{"gene": "NAP1L2 (nucleosome assembly protein 1 like 2)", "reagent no.": 1, "TNF reporter robust z-score": -0.49, "outcome": "inactive"}
{"gene": "NAP1L2 (nucleosome assembly protein 1 like 2)", "reagent no.": 1, "TNF reporter robust z-score": -0.32, "outcome": "inactive"}
{"gene": "ZWINT (ZW10 interacting kinetochore protein)", "reagent no.": 1, "TNF reporter robust z-score": 0.41, "outcome": "inactive"}
{"gene": "ZWINT (ZW10 interacting kinetochore protein)", "reagent no.": 1, "TNF reporter robust z-score": 0.7, "outcome": "inactive"}
{"gene": "ZWINT (ZW10 interacting kinetochore protein)", "reagent no.": 1, "TNF reporter robust z-score": 1.5, "outcome": "inactive"}
{"gene": "ZWINT (ZW10 interacting kinetochore protein)", "reagent no.": 1, "TNF reporter robust z-score": 0.73, "outcome": "inactive"}
{"gene": "SAA2 (serum amyloid A2)", "reagent no.": 1, "TNF reporter robust z-score": 0.34, "outcome": "inactive"}
{"gene": "SAA2 (serum amyloid A2)", "reagent no.": 1, "TNF reporter robust z-score": 0.63, "outcome": "inactive"}
{"gene": "SAA2 (serum amyloid A2)", "reagent no.": 1, "TNF reporter robust z-score": -0.78, "outcome": "inactive"}
{"gene": "SAA2 (serum amyloid A2)", "reagent no.": 1, "TNF reporter robust z-score": -1.15, "outcome": "inactive"}
{"gene": "SUMO3 (small ubiquitin like modifier 3)", "reagent no.": 1, "TNF reporter robust z-score": -0.97, "outcome": "inactive"}
{"gene": "SUMO3 (small ubiquitin like modifier 3)", "reagent no.": 1, "TNF reporter robust z-score": -1.2, "outcome": "inactive"}
{"gene": "SUMO3 (small ubiquitin like modifier 3)", "reagent no.": 1, "TNF reporter robust z-score": -0.67, "outcome": "inactive"}
{"gene": "SUMO3 (small ubiquitin like modifier 3)", "reagent no.": 1, "TNF reporter robust z-score": -1.71, "outcome": "active"}
{"gene": "MAPK15 (mitogen-activated protein kinase 15)", "reagent no.": 1, "TNF reporter robust z-score": 1.05, "outcome": "inactive"}
{"gene": "MAPK15 (mitogen-activated protein kinase 15)", "reagent no.": 1, "TNF reporter robust z-score": 0.37, "outcome": "inactive"}
{"gene": "MAPK15 (mitogen-activated protein kinase 15)", "reagent no.": 1, "TNF reporter robust z-score": 0.22, "outcome": "inactive"}
{"gene": "MAPK15 (mitogen-activated protein kinase 15)", "reagent no.": 1, "TNF reporter robust z-score": 0, "outcome": "inactive"}
{"gene": "ATP6AP2 (ATPase H+ transporting accessory protein 2)", "reagent no.": 1, "outcome": "inactive"}
{"gene": "ATP6AP2 (ATPase H+ transporting accessory protein 2)", "reagent no.": 1, "TNF reporter robust z-score": -1.03, "outcome": "inactive"}
{"gene": "ATP6AP2 (ATPase H+ transporting accessory protein 2)", "reagent no.": 1, "TNF reporter robust z-score": -0.97, "outcome": "inactive"}
{"gene": "ATP6AP2 (ATPase H+ transporting accessory protein 2)", "reagent no.": 1, "TNF reporter robust z-score": -0.99, "outcome": "inactive"}
{"gene": "GNA13 (G protein subunit alpha 13)", "reagent no.": 1, "TNF reporter robust z-score": -1.04, "outcome": "inactive"}
{"gene": "GNA13 (G protein subunit alpha 13)", "reagent no.": 1, "TNF reporter robust z-score": -0.74, "outcome": "inactive"}
{"gene": "GNA13 (G protein subunit alpha 13)", "reagent no.": 1, "TNF reporter robust z-score": -0.89, "outcome": "inactive"}
{"gene": "GNA13 (G protein subunit alpha 13)", "reagent no.": 1, "TNF reporter robust z-score": -0.8, "outcome": "inactive"}
{"gene": "TMPRSS7 (transmembrane serine protease 7)", "reagent no.": 1, "TNF reporter robust z-score": 0.91, "outcome": "inactive"}
{"gene": "TMPRSS7 (transmembrane serine protease 7)", "reagent no.": 1, "TNF reporter robust z-score": 0.75, "outcome": "inactive"}
{"gene": "TMPRSS7 (transmembrane serine protease 7)", "reagent no.": 1, "TNF reporter robust z-score": -0.65, "outcome": "inactive"}
{"gene": "TMPRSS7 (transmembrane serine protease 7)", "reagent no.": 1, "TNF reporter robust z-score": 1.2, "outcome": "inactive"}
